From publication PMC2679751

Molecular target: GST alone (glutathione S-transferase)
Assay: pull-down; NCS-1-GST fusion protein (or GST alone) on glutathione sepharose beads incubated with bacterial lysates expressing S-tagged zebrafish NBPs; Western blot with HRP-conjugated S-tag antibody; only the target purified

B1: S-tagged zebrafish Dan (residues 1-183) (protein, UniProt Q6NZ13 20-183)
chain: APHAHINRLALFPDKSAWCEAKNITQIVGHTGCTPRSIQNRACLGQCFSYSVPNTFPQSTESLVHCDSCMPAQTQWEVVTLDCSGSDEAPRVDKLVERILHCSCQSCSKESSQEGALLQLYPHEGAQDLPSLPDATHTHPQHAHMQADQRDADAHLDMHAPEAG
  binding: no binding

B2: S-tagged zebrafish Pi4kβ (residues 1-423) (domain or fragment, UniProt Q49GP3 1-423)
chain: MGDTELELSPTHLEELQKSPSTSTTSSLSLPSSPSSGPHPLTSSSPSTSEGLPTSSPPLDVISEGLGELSLVIDTEVAKKACQEVLQKVKFLKGDGEVSSASSEPILANGTAHPEANDGGQPPKISEEEVEPIKSVRRRQKNNSSKQSWLLRLFESKLFDISMAISYLYNSKEPGVQAYIGNRLFSFRNEDVDFYLPQLLNMYIHMDEDVGDAIKPYVVYRCRQSINFSLQCAWLLGAYSSDMHISTQRHSRGTKLRKLILSDELKPSSQRIRREVPQPPPPYPPPLHHGPGMSEHSLSPSKRTHQRSKSDATVSISLSSNLKRTASNPKVETSQDEPVRLTPQREFIKSLMGIGKRLATLPTKEQKTQRLISELSLLNHKLPARVWLPTAAFDHHVVRVPHTQAVVLNSKDKAPYLIYVEVL
  binding: no binding

B3: S-tagged zebrafish Hint2 (residues 1-161) (protein, UniProt A3KP93 1-161)
chain: MTACGVLLTRQLLPFGRGLWRVLSVKSCYSTINDEVRLAQEASKKYGKLEPTIFTKIIDKTVPAVIIYEDDKCLAFRDVNPQAPVHYLVIPRIPIPRISEAHDEDSLILGHLLVVAKNIAKKEGLAEGYRVVINDGKNGAQSVYHLHIHVLGGRQMKWPPG
  binding: no binding

B4: S-tagged zebrafish Pink1 (residues 1-574) (protein, UniProt Q5PRB2 1-574)
chain: MSVKHVLSRGLELGRSVFQLGLLKPAGRVAAKFRGERLRVSRPTRTVQPQTFLPGRYRFFRLSVSGLAAQLQSGAFRRVIGGGSARNRAVFLAFGVGLGLIEQEQEEDRTSAALCQEIQAVFRKKKFQSLPKPFTSGYRLEDYVIGKQIGKGCNAAVYEAAAPFAPPVESKKCSLVELNQKEAEDDNKKEEPLRLSASPSFPLAMKMMWNIGAGSSSDAILRSMSMELVPSCPQALRKEQGELTLNGHFGAVPKRLSAHPNVITVYRAFTAEVPLLPGAREEYPDVLPTRLNPHGLGSNRTLFLVMKNYPCTLRQYLEVCVPKRTQASLMFLQLLEGVDHLCRQNIAHRDLKSDNILLEFDNTGCPRLVITDFGCCLAEDSGLKLPFSSWWVNRGGNSCLMAPEVSTAVPGPGVVIDYSKADVWAVGAIAYELFGQPNPFYTLESRSYQEKQLPALPAAAPDDVQLVVKLLLRKNPHKRPSARVAANILHISLWGRRVLMGLDKVQMAEMMAWLQCQSAVVLLKGRGRDQSSVEAELQRSFLANIELEDLRTAVSFMTYERKQWRSLLMSNTQP
  binding: no binding

No constants are given. Whether binding was seen depends on the method and setting. In cells and extracts the contact can be indirect. Where a sequence is shown, tags or fusion partners need not be part of it.
